# In PubChem BioAssay AID1347076 (National Center for Advancing Translational Sciences (NCATS), 2019):
# Several values for one entry are separate records, joined by “and”; a condition that tells them apart may be missing. Equal entries are not always repeated. Hit rate of the full screen: of about 400,000 compounds, about 13,000 (3.2%) were called active. Inconclusive means that the source gave no clear call. Such entries were picked first, then a sample of the others. Calls come from the whole dose curve; as a rule, active = well fitted cell-killing curve with a large enough effect; inconclusive = small, poorly fitted or top-dose-only effect, or effect the other way; inactive = flat fitted curve, though single readings scatter. Potencies of inconclusive entries are doubtful fits and often do not repeat.
# Assay: qHTS assay for MDR1-selective chemotherapeutics: Primary screen using the drug-selected MDR subline cells KB-V1; note: nearly all actives have a fitted effect of over 60% in size
# Settings: KB-V1 MDR cells viability, CellTiter-Glo, 72 h; activity change, negative = cytotoxicity: at 46.1 µM (top of the series)
# Procedure, shortened: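 Cytotoxicity toward P-gp-expressing KB-V1 cells was determined as loss of CellTiter-Glo luminescence after 72 h at 37 degrees C. Compounds were tested in quantitative HTS format across a concentration range, with curves fitted to normalized data.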
# % is set by controls: 0 for no effect and ±100 for the full control effect; potency is the fitted concentration of half-maximal effect.
Compound,Potency,"activity change, negative = cytotoxicity"
Cc1cc(C)cc(NC(=O)CCn2cnc3cc(C)c(C)cc32)c1,"inconclusive: 18.4 µM [cytotoxic, partial curve]",–
Cc1ccc(OCCCCn2c(CCNC(=O)C3CCCCC3)nc3ccccc32)cc1,–,inactive: 7.83%
Cc1ccccc1C(=O)Nc1ccc(N2CCCC2)cc1,"inconclusive: 20.6 µM [cytotoxic, single point]",–
COC(=O)C1=C(C)N(C)C(C)=C(C(=O)OC)C1c1ccc(C(=O)OC)cc1,"inconclusive: 23.1 µM [cytotoxic, single point]",–
COc1cc(/C=C/C(=O)NC(=O)c2ccccc2O)ccc1OC(C)=O,"inconclusive: 13 µM [rising, partial curve, poor fit]",–
CC(=O)N1c2ccc(S(=O)(=O)NCC3CCC(C(=O)NC4CCCCC4)CC3)cc2CC1C (stereo not drawn),–,inconclusive: -30.8%
CSc1ccc(CN2C(=O)NC3(CCCCC3)C2=O)cc1,"inconclusive: 32.6 µM [cytotoxic, partial curve, poor fit]",–
CC1CC(C)CN(C(=O)CCc2ccccc2)C1 (stereo not drawn),–,inactive: 11.2%
COc1ccc(Cc2nnc(SCC(=O)Nc3ncc(C)s3)o2)cc1,"inconclusive: 29.1 µM [cytotoxic, single point]",–
CC12CCC(=O)C=C1CCC1C2C(O)CC2(C)C1CCC2(O)C(=O)COC(=O)COCC(=O)O (stereo not drawn),–,inactive: 3.79%
CCOc1cc(NS(=O)(=O)c2ccccc2)c(OCC)cc1NC(=O)c1ccco1,active: 14.6 µM,–
O=C(N/N=C/c1ccc2c(c1)OCO2)c1ccc(NS(=O)(=O)c2cccs2)cc1,–,inactive: -13.3%
Nc1nc(N)c2ncc(C(=O)CCc3ccccc3)nc2n1,–,inactive: -10%
CCCN(CCC)CCNC(=O)c1cc(-c2ccc(Br)s2)nc2ccccc12,–,inactive: -25.4%
COc1ccc(Cl)cc1C(=O)n1cnc2ccccc21,–,inactive: -21.8%
CCCCNC(=O)C1CCC(CNc2nc(=S)[nH]c3ccccc23)CC1 (stereo not drawn),"inconclusive: 29.1 µM [cytotoxic, single point]",–
O=C(NCc1ccc2c(c1)OCO2)c1ccc(CSCc2ccc(Cl)cc2)o1,active: 20.6 µM,–
COc1ccccc1NC(=O)c1ccccc1NC(=O)c1ccccn1,"inconclusive: 2.91 µM [cytotoxic, partial curve]",–
N#CCC(=O)N/N=C/c1cn(Cc2ccccc2C#N)c2ccccc12,–,inactive: 0.47%
COC(=O)c1cc(Br)c(=O)n(CCC2=CCCCC2)c1,–,inactive: -1.14%
COc1ccc(CN(C)Cc2ccccc2)c(OC)c1OC,"inconclusive: 11.6 µM [cytotoxic, partial curve]",–
O=C(Nc1cccc(F)c1F)C1CCN(c2ncccn2)CC1,–,inactive: 2.04%
COC(=O)C[C@H]1c2cc(C(F)(F)F)ccc2S(=O)(=O)N1Cc1ccc(OC)cc1,"inconclusive: 18.4 µM [cytotoxic, partial curve] and inconclusive: 16.4 µM [cytotoxic, partial curve, poor fit]",–
CN1CCN(S(=O)(=O)c2ccc(Cl)c(C(F)(F)F)c2)CC1,"inconclusive: 16.4 µM [cytotoxic, single point]",–
CCNC(=O)COC(=O)c1cc(C)n(-c2ccccc2)c1C,–,inactive: -7.7%

Compound,Potency,"activity change, negative = cytotoxicity"
CC(C)c1ccc(NC2CCCN(C(=O)CC3CCCC3)C2)cc1 (stereo not drawn),–,inactive: -0.977%
CC1(C(=O)N2CCN(c3ccccc3)CC2)CC1(Cl)Cl (stereo not drawn),"inconclusive: 29.1 µM [rising, single point]",–
CC(=O)N1CCC2(CC1)C/C(=N\NC(=S)Nc1ccccc1F)c1cc(O)ccc1O2,–,inactive: -14.9%
O=C1C(=O)c2ccc(-c3ccccc3)cc2-c2ccccc21,active: 3.66 µM,–
Cc1[nH]c2ccccc2c1/C=C/c1ccnc2ccccc12,active: 7.31 µM,–
COc1ccc(Nc2nc(C)nc3c2nnn3Cc2ccccc2Cl)c(OC)c1,–,inactive: 5.8%
COCCn1c(SCC(=O)c2c(N)n(C3CC3)c(=O)[nH]c2=O)nnc1-c1cccc(C)c1,"inconclusive: 29.1 µM [rising, single point]",–
CC(C)(C)C1CCC2(CC1)NC(=S)N(c1ccccc1)N2 (stereo not drawn),–,inactive: 0%
Cc1sc2c(c1C)c(=O)n(-c1cccc(C(F)(F)F)c1)c(=O)n2CC(=O)NCc1ccco1,"inconclusive: 1.03 µM [cytotoxic, full curve, poor fit]",–
CCOC(=O)CSc1nnc2n(C3CCCCC3)c(=O)c3c4c(sc3n12)CCCC4,"inconclusive: 16.4 µM [cytotoxic, partial curve]",–
Cc1cccc(N2CCN(C(c3ccccc3)c3nnc(-c4ccccc4Cl)o3)CC2)c1C (stereo not drawn),–,inactive: -13.3%
O=C(NCc1csc(-c2ccccc2)n1)c1cc(F)cc2c1OCOC2,"inconclusive: 20.6 µM [cytotoxic, single point]",–
O=C(O)c1ccc(OCCCCCCOC2CCCCO2)cc1 (stereo not drawn),"inconclusive: 25.9 µM [rising, partial curve, poor fit]",–
C=CC[n+]1ccc(/C=C2\C=Cc3cc(C)ccc3N2CC)c2ccccc21,–,inactive: -13.2%
COc1ccc(OC)c(CNC(=O)CN2CC(C)Sc3ccccc32)c1 (stereo not drawn),"inconclusive: 13 µM [cytotoxic, single point]",–
COc1cccc2cc(C(=O)N3CC(C)OC(C)C3)c(=O)oc12 (stereo not drawn),–,inactive: 11.7%
C=C(CN(C)C)C(=O)c1ccc(C)cc1C,"inconclusive: 29.1 µM [cytotoxic, single point]",–
CCOc1ccccc1NC(=O)CCc1nnc2ccc(N3CCC4(CC3)OCCO4)nn12,"inconclusive: 23.1 µM [cytotoxic, single point]",–
COc1ccc(CNCCC(c2ccc(OC(C)C)cc2)c2ccccc2OC)cc1OC (stereo not drawn),"inconclusive: 18.4 µM [cytotoxic, single point]",–
CCn1c(SCC(=O)Nc2cccc(S(=O)(=O)N(C)c3ccccc3)c2)nnc1C1CC1,active: 20.6 µM,–
Cc1ccc(Cl)cc1N1CCN(C(=O)c2cc3c(-c4ccccc4F)nn(C)c3s2)CC1,–,inactive: 0%
O=C(OCC(=O)N1CCCCCC1)c1cc(S(=O)(=O)N2CCOCC2)ccc1F,"inconclusive: 18.4 µM [rising, single point]",–
O=C(NC1CCCC1)C(c1ccncc1)N(Cc1ccco1)C(=O)c1ccc(-c2ccccc2)[nH]1 (stereo not drawn),active: 20.6 µM,–
COc1ccc(C(c2nnnn2Cc2ccccc2)N2CCN(c3nc4ccccc4s3)CC2)cc1 (stereo not drawn),"inconclusive: 9.2 µM [cytotoxic, partial curve]",–
O=C(Nc1ccc(Cl)cc1C(=O)Nc1ccccn1)c1ccco1,"inconclusive: 18.4 µM [cytotoxic, single point]",–

Compound,Potency,"activity change, negative = cytotoxicity"
CCOC(=O)c1cc(-c2ccncc2)nc2c1c(C)nn2-c1ccccn1,"inconclusive: 18.4 µM [cytotoxic, partial curve, poor fit]",–
COCCN(CCOC)S(=O)(=O)c1ccc(Cl)nc1,"inconclusive: 16.4 µM [rising, single point]",–
CCN(CC)S(=O)(=O)c1cc(NC(=O)c2ccc3c(c2)NC(=O)C(C)S3)ccc1C (stereo not drawn),"inconclusive: 8.2 µM [cytotoxic, partial curve, poor fit]",–
CN(c1ccc(C(=O)Nc2ccc3c(c2)OCCO3)cc1)S(C)(=O)=O,"inconclusive: 20.6 µM [cytotoxic, single point]",–
O=C1/C(=C\Nc2ccc(OC(F)(F)F)cc2)CCN1c1ncccn1,"inconclusive: 29.1 µM [rising, single point]",–
Cc1ccc(C)c(NC(=O)CCc2c(C)nn(-c3ccc(N4CCCCC4)nn3)c2C)c1,"inconclusive: 1.64 µM [cytotoxic, full curve]",–
CCOC(=O)n1c2ccccc2c(=O)n1CCO,–,inactive: 3.08%
COc1ccc(CN2C(=O)c3cccnc3C2=O)cc1S(=O)(=O)N1CCOc2ccc(C)cc21,"inconclusive: 29.1 µM [rising, single point]",–
COc1ccc(NC(=O)c2cccc(NC(=O)C3C4CC5OC(=O)C3C5C4)c2)c(OC)c1 (stereo not drawn),"inconclusive: 29.1 µM [rising, single point]",–
CC(=O)Nc1nc2ccccc2n1Cc1ccc(Cl)cc1,"inconclusive: 7.31 µM [cytotoxic, partial curve]",–
O=C1COc2ccc(-c3cc(-c4ccccc4)c4c(n3)-c3cc(Cl)ccc3OC4)cc2N1,–,inactive: -15.7%
Cc1cccc(NC(=O)CCc2c(C)nc3c(c(C)nn3C(C)(C)C)c2C)c1C,"inconclusive: 0.0058 µM [cytotoxic, full curve, poor fit]",–
O=C(O)c1ccc(S(=O)(=O)c2ccc3c(c2)C(=O)N(NC(=O)c2ccc(O)cc2)C3=O)cc1,–,inactive: -0.916%
Cc1ccc2cccc(Oc3ncnc4scc(-c5ccc(Cl)cc5)c34)c2n1,"inconclusive: 13 µM [cytotoxic, partial curve, poor fit]",–
Cc1cc(F)ccc1S(=O)(=O)Nc1ncnc2scc(-c3ccc(F)cc3)c12,"inconclusive: 13 µM [cytotoxic, partial curve]",–
COc1ccc(C(=O)Nc2ccc(N3CCOCC3)cc2)cc1OC,active: 16.4 µM,–
CCc1c(C(=O)c2ccc(Cl)cc2)oc2c(C)c3oc(=O)cc(C)c3cc12,–,inactive: -0.781%
CCOc1cc(CNn2cn[nH]c2=S)cc(Cl)c1OCc1ccccc1F,active: 16.4 µM,–
O=C(CC(=O)c1ccccc1O)c1ccc(F)cc1,"inconclusive: 18.4 µM [cytotoxic, single point]",–
O=C(CSc1ncccc1-c1nc2ccccc2[nH]1)NCc1ccco1,–,inactive: -1.96%
CCOc1cccc(-c2nnc3sc(-c4cc(OC)c(OC)c(OC)c4)nn23)c1,active: 8.2 µM,–
CC(OC(=O)Cn1cnc2c1c(=O)n(C)c(=O)n2C)C(=O)NCc1ccccc1 (stereo not drawn),–,inactive: -13.9%
Cc1ccc(N2CCN(S(=O)(=O)c3ccc4[nH]c5c(c4c3)CCCCC5)CC2)c(C)c1,"inconclusive: 16.4 µM [cytotoxic, single point]",–

# Five entries already listed, ordered by number of heavy atoms, ascending:
Compound,Potency,"activity change, negative = cytotoxicity"
COC(=O)c1cc(Br)c(=O)n(CCC2=CCCCC2)c1,–,inactive: -1.14%
CSc1ccc(CN2C(=O)NC3(CCCCC3)C2=O)cc1,"inconclusive: 32.6 µM [cytotoxic, partial curve, poor fit]",–
COc1ccc(OC)c(CNC(=O)CN2CC(C)Sc3ccccc32)c1 (stereo not drawn),"inconclusive: 13 µM [cytotoxic, single point]",–
CCOC(=O)c1cc(-c2ccncc2)nc2c1c(C)nn2-c1ccccn1,"inconclusive: 18.4 µM [cytotoxic, partial curve, poor fit]",–
Cc1cc(F)ccc1S(=O)(=O)Nc1ncnc2scc(-c3ccc(F)cc3)c12,"inconclusive: 13 µM [cytotoxic, partial curve]",–
